This note sets out measurements from PubChem BioAssay AID2685 (National Center for Advancing Translational Sciences (NCATS), 2010).

Some of the results follow. The main result of the screen is listed elsewhere. These columns were measured beside it and carry no call. Most of these compounds were active or inconclusive in the main read-out, so they are no random draw. Words in brackets tell the shape of the fitted curve; partial curves, single points and poor fits give uncertain potencies.

This assay can be described thus: qHTS Assay for Lipid Storage Modulators in Drosophila S3 Cells.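 On cell number change: cells counted by Cell Tracker Red CMTPX staining in the red channel.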 To be noted: BODIPY lipid droplet fluorescence, 18-24 h; for cell number change: measured here: cell count max response, cells fed with added oleic acid. Put shortly:
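Drosophila S3 cells loaded with oleic acid (400 uM, as added) and compounds at several concentrations; lipid droplets imaged by 488-nm laser-scanning cytometry, 500–530 nm intensity and object ratio to cell channel. Percent activity normalized to 20 uM Triacsin C.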
Background: In qHTS, concentration-response curves come from the screen itself.

Where [1] appears, read: measured here: lipid fluorescence (Fed channel) AC50, cells fed with added oleic acid.
[2] abbreviates: measured here: cell number channel AC50, cells fed with added oleic acid.

With `COc1cc(NC(=O)CCS(=O)(=O)c2ccc3c(c2)oc(=O)n3C)cc(OC)c1OC`, the cell number change amounted to 1.18%. The AC50 under setting [1] was 29.1 µM [falling, single point].
Consider `CC(C)c1ccc(/C=N/NC(=O)CN(c2cccc(Cl)c2Cl)S(C)(=O)=O)cc1`, for which the cell number change is -72.7%. Moreover, under setting [2], the AC50 is 20.6 µM [falling, partial curve, poor fit]. Also, under setting [1], the concentration at half-maximal activity (AC50) is 29.1 µM [falling, single point].
Take `COc1cc(CCC(=O)Nc2ccc(S(=O)(=O)N3CCOCC3)cc2)cc(OC)c1OC`: the cell number change was -7.1%. For the same compound, the AC50 under setting [1] was 29.1 µM [falling, single point].
In the case of `CCCc1cc(=O)[nH]c(SCC(=O)c2cc(C)n(CC(F)(F)F)c2C)n1`, the cell number change turned out to be 61.4%. Also, the AC50 under setting [2] is 29.1 µM [rising, single point].
For `COCCn1c(-c2ccc(OC)cc2)cnc1SCC(=O)Nc1cccc2ccccc12`, the AC50 under setting [1] is 0.13 µM [rising, full curve, poor fit].
Turning to `Cc1cccc(NC(=O)NCC2CCN(c3ccc(S(=O)(=O)N4CCOCC4)cc3)CC2)c1`, the cell number change is 22.1%. For the same compound, under setting [1], the AC50 was 18.4 µM [falling, partial curve, poor fit].
With `O=[N+]([O-])c1ccc(-c2nnc(S)n2-c2ccccc2)cc1`, the cell number change stood at 1.76%. Further, the AC50 under setting [1] was 0.92 µM [rising, full curve, poor fit].
Consider `COc1cccc(-n2nc(C(=O)Nc3ccc4c(c3)OCO4)c3ccccc3c2=O)c1`, for which the cell number change amounted to 178%. Also, the AC50 under setting [2] is 0.291 µM [rising, full curve]. In addition, the AC50 under setting [1] was 0.291 µM [rising, full curve].
In the case of `CC(=O)Nc1ccc(SCC(=O)NCCc2ccc(F)cc2)cc1`, the cell number change stood at 3.42%.
As to `COc1ccc(C(=O)NNC(=O)CCC(=O)NNC(=O)c2ccc(OC)cc2)cc1`, the cell number change stood at 6.94%. Further, under setting [1], the half-maximal activity concentration (AC50) was 0.103 µM [falling, full curve, poor fit].
`O=C(N/N=C/c1ccncc1)c1cccc(NC(=O)c2ccccc2Cl)c1`: the cell number change turned out to be 10.6%. For the same compound, the AC50 under setting [1] is 3.66 µM [rising, full curve, poor fit].
With `Cc1cc(NC(=O)C2CC=CCC2C(=O)O)no1` (stereo unspecified), the cell number change is -4.11%. Besides, the half-maximal activity concentration (AC50) under setting [1] was 6.51 µM [falling, single point].
With `COc1ccc(CNC(=O)Nc2ccc(OC)cc2)cc1`, the cell number change was determined as 4.52%. Under setting [1], the AC50 is 0.184 µM [falling, full curve, poor fit].
In the case of `CCC(=O)N/N=C(\C)CC(=O)Nc1cc(Cl)ccc1C`, the cell number change stood at 5.72%. Further, under setting [2], the half-maximal activity concentration (AC50) was 0.103 µM [rising, partial curve, poor fit].
As for `O=C1CC(SC(=NCc2ccc3c(c2)OCO3)Nc2ccccc2)C(=O)N1` (stereo unspecified), the cell number change is 11.9%. Further, under setting [1], the AC50 is 0.461 µM [rising, partial curve, poor fit].
On to `CCOC(=O)c1c(CN2CCCCC2)oc2ccc(OC)cc12`, for which the cell number change was -20%. Besides, the AC50 under setting [1] is 3.26 µM [falling, single point].
Turning to `Cc1cccc(NC(=O)CC2C(=O)NCCN2C(=O)Nc2ccc(Cl)cc2)c1` (stereo unspecified), the cell number change is -13.3%. Also, the AC50 under setting [1] was 23.1 µM [falling, single point].
Turning to `COc1ccc(Cl)cc1NC(=O)CN(C)C(=O)c1cccc(-n2cnnn2)c1`, the cell number change came out at 13.6%. For the same compound, under setting [1], the AC50 was 23.1 µM [rising, single point].
For `CCCCC(O)(c1ccc(OC)cc1)C(CN1CCOCC1)c1ccccc1` (stereo unspecified), the cell number change is -35.8%. Besides, the AC50 under setting [2] is 25.9 µM [falling, single point].
On to `NC(=O)NC(=O)COC(=O)c1sc2ccccc2c1Cl`, for which the cell number change was 7.64%. Further, the AC50 under setting [1] was 0.146 µM [falling, full curve, poor fit].
`N#CC(c1ccc(Cl)cc1)N1CCOCC1` (stereo unspecified): the cell number change is 4.23%. Under setting [1], the AC50 was 2.59 µM [rising, partial curve].
With `COc1ccc(NC(=O)c2cccc(S(=O)(=O)Nc3ccc(Br)cc3)c2)cn1`, the cell number change is -9.85%. Also, the AC50 under setting [1] was 16.4 µM [falling, single point].
For `CC(=O)c1cc2c(cc1N/C(=N/S(=O)(=O)c1ccccc1)c1ccc(Cl)cc1)OCO2`, the cell number change turned out to be 1.21%. For the same compound, the concentration at half-maximal activity (AC50) under setting [1] was 18.4 µM [rising, single point].
For the compound `CN1/C(=C/C2CC(=O)N(c3ccc([N+](=O)[O-])cc3)C2=O)C(C)(C)c2ccccc21` (stereo unspecified), the cell number change amounted to 6.84%. Besides, the concentration at half-maximal activity (AC50) under setting [1] was 16.4 µM [rising, single point].
Turning to `Cc1nc(N)c(C#N)c(-c2cccnc2)c1C`, under setting [2], the half-maximal activity concentration (AC50) was 6.51 µM [falling, single point].
Consider `Cc1ccc(S(=O)(=O)NC(=O)c2ccc(-c3ccc(C)c4ccccc34)o2)cc1`, for which the cell number change worked out at 14.1%. In addition, under setting [1], the AC50 is 11.6 µM [rising, single point].
Consider `C=CCn1c(COc2ccc(CC)cc2)nnc1SC/C(O)=C(\C#N)c1nc2ccccc2[nH]1`, for which the AC50 reads like this: under setting [2], 1.84 µM [rising, partial curve]; under setting [1], 0.58 µM [rising, single point].
Consider `COc1ccc(/C=C(\NC(=O)c2ccc(OC)cc2)C(=O)Nc2ccccc2C(=O)O)cc1`, for which the cell number change was determined as 25.4%. Moreover, the AC50 under setting [1] was 29.1 µM [rising, single point].
With `O=C(NCCc1c[nH]c2ccccc12)OCCCCOC(=O)NCCc1c[nH]c2ccccc12`, the cell number change worked out at 3.63%. In addition, under setting [1], the AC50 was 11.6 µM [falling, partial curve, poor fit].
For the compound `COc1ccccc1Nc1nc(N)nc(CSc2nnc(C)s2)n1`, the cell number change was -14.3%. Besides, the AC50 under setting [1] was 18.4 µM [rising, partial curve].
`Cc1cc(C)nc(N(C#N)C(C)C(=O)N(C)C)n1` (stereo unspecified): the cell number change came to 27.5%. Also, under setting [1], the AC50 was 0.00461 µM [rising, full curve, poor fit].
As to `N=c1c(C(=O)NC2CCCCC2)cc2c(=O)n3ccccc3nc2n1Cc1cccnc1`, the cell number change was -1.9%.
For `CCOc1ccccc1NC(=O)COC(=O)C1CC(=O)N(c2c(C)cccc2C)C1` (stereo unspecified), the cell number change was -6.35%. Besides, under setting [1], the half-maximal activity concentration (AC50) was 0.82 µM [falling, full curve, poor fit].
For the compound `CCOC(=O)c1ccc(S(=O)(=O)N2CCN(CC(=O)NC(=O)NC3CCCCC3)CC2)cc1`, the cell number change stood at 1.41%. Under setting [1], the half-maximal activity concentration (AC50) was 1.46 µM [falling, partial curve].
Turning to `Cc1nc(CN2CCN(C(=O)c3ccc(Br)cc3)CC2)cs1`, the cell number change stood at 7.84%.
With `O=C(CSc1cccc2cccnc12)N/N=C/c1cccnc1`, under setting [2], the concentration at half-maximal activity (AC50) was 0.291 µM [rising, partial curve, poor fit].
Consider `CC(C)(C)NC(=O)CSc1nnc(C2CC2)n1-c1ccccc1`, for which the cell number change is 23.2%.
As for `O=C(Nc1ccon1)c1ccc(S(=O)(=O)N2CCOCC2)cc1`, the cell number change was -19.1%. Further, under setting [1], the half-maximal activity concentration (AC50) is 2.59 µM [falling, full curve, poor fit].
With `Cc1ccc(C2N(C)c3ccccc3-c3nc4ccccc4n32)o1` (stereo unspecified), the cell number change was 21.4%. Further, the concentration at half-maximal activity (AC50) under setting [1] is 0.58 µM [rising, single point].
For `CC(C)(C)NC(=O)C1CN(S(=O)(=O)c2ccccc2)CCN1S(=O)(=O)c1ccccc1` (stereo unspecified), the cell number change is -10.8%. Further, the AC50 under setting [2] was 0.731 µM [falling, full curve, poor fit].
Consider `CC(=O)Nc1ccc(S(=O)(=O)N2CCC(NC(=O)C(Cc3ccc(C)cc3)NC(C)=O)CC2)cc1` (stereo unspecified), for which the cell number change worked out at 8.47%. Under setting [1], the half-maximal activity concentration (AC50) was 0.103 µM [rising, full curve, poor fit].
As for `O=C(C1CCCO1)N1CCN(C(=S)Nc2ccc(Cl)c(Cl)c2)CC1` (stereo unspecified), the cell number change is -22.4%. Besides, the AC50 under setting [1] was 29.1 µM [rising, single point].
On to `CCn1c(CSc2nnc3ccccn23)nc2cc(C(=O)O)ccc21`, for which the cell number change amounted to 14.4%.
Regarding `O=C(CN1CCSCC1)c1c[nH]c2ccccc12`, the concentration at half-maximal activity (AC50) by setting is: under setting [2], 6.51 µM [falling, single point]; under setting [1], 0.651 µM [falling, single point].
Regarding `Cc1cc(C)cc(N(C(=O)CCC(=O)Nc2ccccn2)C(C(=O)NC(C)C)c2ccc(O)cc2)c1` (stereo unspecified), the cell number change was 32.4%. For the same compound, under setting [2], the AC50 is 20.6 µM [rising, single point].
Turning to `CCN1CCN(S(=O)(=O)c2ccc(Cl)c(C(=O)NC3CCCC3)c2)CC1`, the cell number change was 22.5%.
In the case of `CCCn1c(=O)c(C(=O)Nc2nnc(CC)s2)c(O)c2ccccc21`, the cell number change is -1.36%. Also, the AC50 under setting [1] was 0.0058 µM [falling, full curve, poor fit].
Consider `CC(C)C(c1nnnn1CCc1ccccc1)N1CCN(C(=O)c2ccco2)CC1` (stereo unspecified), for which the cell number change was 0.295%.
As for `COc1cccc(CNC(=O)C2CCN(S(=O)(=O)c3ccc(C)cc3)CC2)c1`, the cell number change came to 38.5%. Also, the half-maximal activity concentration (AC50) under setting [2] was 8.2 µM [rising, single point].
For the compound `CCC(=O)Nc1cccc(C2=NN(c3ccccc3)C(c3ccc(OC)cc3)C2)c1` (stereo unspecified), the cell number change stood at 64.9%. In addition, under setting [2], the half-maximal activity concentration (AC50) was 29.1 µM [rising, single point]. Besides, the concentration at half-maximal activity (AC50) under setting [1] is 29.1 µM [rising, single point].
Take `CCOc1ccc(NC(=O)CC2C(=O)N(c3ccccc3)C(=O)N2Cc2ccco2)cc1` (stereo unspecified): the cell number change amounted to 24%. In addition, under setting [2], the concentration at half-maximal activity (AC50) is 1.16 µM [rising, single point]. Besides, the AC50 under setting [1] was 1.16 µM [rising, partial curve, poor fit].
As for `CCc1c(C)nc2nc(SCc3ccccc3)[nH]n2c1=O`, the half-maximal activity concentration (AC50) under setting [2] is 0.103 µM [rising, full curve, poor fit].
In the case of `CCN(CC)S(=O)(=O)N1CCC(C(=O)NCCC2=CCCCC2)CC1`, the cell number change was 28.2%. Besides, the AC50 under setting [2] was 0.00184 µM [rising, full curve, poor fit].
As for `C=CCN1C(=O)S/C(=C\c2ccc(N3CCOCC3)cc2C)C1=O`, the cell number change came out at 7.05%. Besides, the AC50 under setting [1] is 6.51 µM [rising, single point].
Regarding `COc1ccc(OC)c(NC(=O)c2nnn(CC(=O)Nc3ccc4c(c3)OCO4)c2N)c1`, the cell number change is -8.57%. Moreover, the AC50 under setting [1] was 3.66 µM [rising, single point].
For the compound `CCCCC(=O)NC(c1ccco1)c1c(O)ccc2ccccc12` (stereo unspecified), the cell number change was 18.3%. For the same compound, the AC50 under setting [2] is 4.61 µM [rising, single point].
Regarding `Cc1ccc(C(=O)CN(CCCC(N)=O)C(=O)c2ccncc2)cc1`, the cell number change was -32.8%. For the same compound, the AC50 under setting [2] was 32.6 µM [falling, single point]. For the same compound, the AC50 under setting [1] was 18.4 µM [falling, single point].
As for `COc1ccccc1Oc1ccc(S(=O)(=O)N2CCCC2)cc1`, the cell number change amounted to 0.674%.
On to `Cn1cc(CN2CCC(n3nccc3NC(=O)c3ccccc3Cl)CC2)cn1`, for which the cell number change turned out to be 0.99%. Further, the concentration at half-maximal activity (AC50) under setting [1] is 6.51 µM [falling, single point].

The term AC50 denotes the midpoint of the concentration-response curve, whichever way the signal moves. The low end stands for greater potency, the high end for weaker potency.
